In US20250177532A1, “TEMPERATURE-SENSITIVE HYDROGEL FOR CANCER TREATMENT CAPABLE OF PHOTOTHERMAL THERAPY AND PREPARATION METHOD THEREFOR” (KOREA NATIONAL UNIVERSITY OF TRANSPORTATION …, priority 2022, published 2025):

Assay: Nitric oxide release from NO donors under near-infrared laser (Griess assay)
Type: physicochemical
Details: 808 nm, 1.5 W/cm^2

N[C@@H](CSN=O)C(=O)O [CysNO, S-nitrosocysteine]
NO release with/without laser (Griess assay at different time points): NO release will continue only after Laser irradiation
